From PubChem BioAssay AID1487 (National Center for Advancing Translational Sciences (NCATS), 2009)
Some of the results follow. The main result of the screen is listed elsewhere. These columns were measured beside it and carry no call. Compounds called inactive in the main read-out are mostly missing here. The note in brackets gives the kind of curve behind each potency; many fits are weak.

Experiment: qHTS Assay for Modulators of Lamin A Splicing
Settings: HeLa LMNA splicing GFP/RFP minigene ratio, 48 h
Method in brief: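 S3 HeLa stable clones carrying a lamin A-EGFP splicing minigene plus DsRed2 were seeded at 600 cells/well in Opti-MEM with 2% FBS, pin-dosed and incubated 48 h at 37°C. Acumen cytometry (488 nm) gave the GFP/RFP total-intensity ratio.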

[1] = measured here: RFP viability control channel
[2] = measured here: GFP splicing reporter channel

Structure (SMILES)	AC50 [1]	AC50 [2]
CCN(CC)C(=O)c1sc2c(c1C)c(=O)n(-c1ccc(Cl)c(Cl)c1)c(=O)n2Cc1cc(=O)n2ccccc2n1	0.00794 µM [rising, full curve, poor fit]	–
COc1cccc(CNC(=O)Cn2c(=O)n3nc(-c4cccc(F)c4)nc3c3ccccc32)c1	–	10 µM [falling, partial curve, poor fit]
c1ccc(-c2nc(CSc3nnnn3-c3ccccc3)cs2)cc1	35.5 µM [rising, single point]	14.1 µM [rising, partial curve]
COc1cccc(NC(=O)C(Sc2nnc(Nc3ccccc3C)s2)c2ccccc2)c1 (stereo unspecified)	31.6 µM [rising, single point]	–
C/C(=N\NS(=O)(=O)c1cccc([N+](=O)[O-])c1)c1cccnc1	6.31 µM [rising, partial curve, poor fit]	–
CCc1ccc2[nH]c(=O)c(CN(Cc3ccccc3)Cc3nnnn3Cc3ccco3)cc2c1	12.6 µM [rising, partial curve]	11.2 µM [rising, partial curve, poor fit]
Cc1ccc(S(=O)(=O)Nc2cc(C(F)(F)F)ccc2N2CCOCC2)cc1	31.6 µM [rising, single point]	35.5 µM [rising, single point]
COc1ccccc1CNS(=O)(=O)c1ccc2c(c1)CC(=O)N2C	0.355 µM [falling, single point]	–
COc1ccc(N2C(=O)CCC(C(=O)c3ccccc3)=C2C)cc1	35.5 µM [rising, single point]	–
O=C(COc1ccc(Cl)cc1)Nc1ccc(Cc2ccncc2)cc1	20 µM [rising, single point]	11.2 µM [rising, partial curve]
COc1ccc(C(=O)c2sc3nc(C)cc(-c4cccs4)c3c2N)cc1OC	35.5 µM [rising, single point]	25.1 µM [rising, single point]
CCOC(=O)Cc1cnc(NC(=O)c2ccccc2)s1	–	11.2 µM [rising, partial curve, poor fit]
O=C(CSC1=NC(=O)C(c2ccccc2)C(=O)N1)Nc1ccccc1[N+](=O)[O-] (stereo unspecified)	1.41 µM [rising, partial curve]	0.794 µM [rising, full curve, poor fit]
CC[N+]1=CN(c2ccccc2)C(C)=CC1(C)C	–	35.5 µM [rising, single point]
O=C(Nc1ccc(Br)cc1F)C1CCN(c2nc3ccccc3[nH]2)CC1	–	11.2 µM [falling, partial curve, poor fit]
O=C(Nc1ccccc1)Nc1ccc2snnc2c1	35.5 µM [rising, single point]	–
CC(C)(C)NS(=O)(=O)c1ccc(NC(=O)C2CCCCC2)cc1	35.5 µM [falling, partial curve]	–
CCOc1cc2[nH]c(=O)n(CCCCC(=O)N3CCN(c4ccc(OC)cc4)CC3)c(=O)c2cc1OCC	3.98 µM [falling, full curve, poor fit]	0.708 µM [falling, full curve, poor fit]
O=S(=O)(O)c1ccc2c(N=Nc3ccc(S(=O)(=O)O)c4ccccc34)c(O)c(S(=O)(=O)O)cc2c1	–	0.0355 µM [rising, full curve, poor fit]
COC(=O)c1cc(NC(=O)CCc2c(C)nc3ncnn3c2C)cc(C(=O)OC)c1	0.0501 µM [falling, partial curve, poor fit]	0.0708 µM [falling, partial curve, poor fit]
O=C1CCCc2cc(S(=O)(=O)N3CCCC(C(=O)Nc4ccc(F)c(Cl)c4)C3)ccc2N1 (stereo unspecified)	35.5 µM [falling, partial curve]	11.2 µM [falling, partial curve]
CC(C)c1nc2sc3c(=O)[nH]c(=S)[nH]c3c2c2c1CCC2	0.0891 µM [rising, full curve, poor fit]	–
CSC(=NS(=O)(=O)c1ccccc1)SC	25.1 µM [rising, single point]	35.5 µM [rising, single point]
CCN(CC)S(=O)(=O)c1ccc(Cl)c(C(=O)Nc2nnc(C)s2)c1	31.6 µM [rising, single point]	35.5 µM [rising, single point]
C=CCNCC(=O)N1N=C(c2ccc3ccccc3c2)CC1c1ccc(OC)cc1 (stereo unspecified)	–	0.501 µM [falling, partial curve, poor fit]
Cc1cccc(NC(=O)N2CCN(C(=O)c3nsc4ccccc34)CC2)c1C	–	0.0251 µM [rising, full curve, poor fit]
Cc1cc(C)nc(SC(C)C(=O)O)n1 (stereo unspecified)	11.2 µM [rising, partial curve]	–
CCC1(C)CC(c2nc(-c3ccc(OC)cc3)cs2)CCS1 (stereo unspecified)	35.5 µM [rising, single point]	35.5 µM [rising, single point]

Structure (SMILES)	AC50 [1]	AC50 [2]
CCOC(=O)N/N=C/c1ccc(OCCSc2ccc(Cl)cc2)c(OCC)c1	14.1 µM [rising, single point]	–
Cn1c(CC(=O)NC(C)(C)CO)c(Sc2ccccc2)c2ccccc21	12.6 µM [rising, single point]	–
COc1ccc2oc(=O)c(-c3csc(Nc4cccc(O)c4)n3)cc2c1	25.1 µM [rising, partial curve]	35.5 µM [rising, single point]
CC(C)CCN1CCN(Cc2cccc3cccnc23)CC1CCO (stereo unspecified)	0.02 µM [falling, full curve, poor fit]	–
CCc1cccc(NC(=O)CCCSc2nc3ccccc3[nH]2)c1	15.8 µM [rising, partial curve]	17.8 µM [rising, partial curve, poor fit]
Cc1ncsc1CCC(=O)N1CCCC(C(=O)c2cccc(Cl)c2)C1 (stereo unspecified)	12.6 µM [falling, partial curve]	–
O=c1[nH]c(=O)c2nnc(N/N=C\c3ccc(O)cc3)nc2[nH]1	–	0.0631 µM [rising, full curve, poor fit]
COC(=O)Nc1nc(-c2ccccc2)c(C(=O)c2ccc(Cl)cc2)s1	3.55 µM [rising, single point]	0.2 µM [falling, full curve, poor fit]
COc1ccc(CN(C)CC(=O)Nc2ccc(Cl)cc2C(F)(F)F)c(OC)c1	14.1 µM [rising, partial curve]	–
O=C(NCc1cccs1)c1ccc2c(c1)ncn2C1CCCC1	0.0501 µM [falling, full curve, poor fit]	–
CC(=O)NCc1cc(-c2ccc(Cl)cc2)no1	–	0.0708 µM [rising, full curve, poor fit]
Nc1c(C(=O)NCc2ccc(F)cc2)c2nc3ccccc3nc2n1CCCN1CCOCC1	12.6 µM [falling, partial curve, poor fit]	20 µM [falling, partial curve]
CSc1nc(Sc2cccc(Cl)c2)c2ccccc2n1	35.5 µM [falling, single point]	35.5 µM [falling, single point]
COc1ccc(-c2ccc(CCC(=O)O)o2)cc1	–	10 µM [falling, partial curve]
CCOc1ccc(NC(=O)CCC(=O)OC)cc1	–	35.5 µM [rising, single point]
CC(C)OC(=O)N(C)c1ccc(C(O)(C(F)(F)F)C(F)(F)F)cc1	0.398 µM [rising, full curve, poor fit]	–
CCc1c(C)sc2c1CCN(C(=O)Nc1ccccc1C(=O)OC)C2c1ccc(F)cc1 (stereo unspecified)	1.26 µM [rising, full curve]	0.112 µM [rising, full curve, poor fit]
Cc1ccc(-c2[nH]nc(N)c2N=Nc2ccccc2C)cc1	22.4 µM [falling, partial curve]	22.4 µM [falling, single point]
CCOC(=O)C(C(=O)OCC)N(C#N)c1nc(N(C)C)nc(N(C)C)n1	–	0.01 µM [rising, full curve, poor fit]
CCCOc1ccc2c3c(c(=O)oc2c1OCCC)CCCC3	–	35.5 µM [falling, single point]
C=CCOc1c(Br)cc(CNc2ccc(NC(=O)C(C)C)c(OC)c2)cc1OCC	1.41 µM [rising, partial curve]	–
CCCCCCCOc1ccc(OC(=O)c2cccnc2)cc1	3.16 µM [rising, partial curve]	–
COc1cccc(C(c2nnnn2Cc2ccco2)N2CCN(c3cccc(C)c3C)CC2)c1OC (stereo unspecified)	12.6 µM [rising, single point]	10 µM [rising, single point]
CCc1cccc(C)c1NC(=O)CSc1nc2ccc(N3C(=O)c4ccccc4C3=O)cc2s1	15.8 µM [falling, partial curve]	–
COc1cc(/C=C2\COC/C(=C\c3ccc(O)c(OC)c3)C2=O)ccc1O	2.82 µM [falling, partial curve]	2.51 µM [falling, partial curve, poor fit]
CCOC(=O)/C=C1\SCC(=O)N1Cc1ccc(Br)cc1	35.5 µM [rising, single point]	–
CC(C)CC(NC(=O)C(CO)NC(=O)C1CCC(=O)N1)C(N)=O (stereo unspecified)	–	1 µM [falling, partial curve, poor fit]

Part of the list above, in markdown.

| Structure (SMILES) | AC50 [1] | AC50 [2] |
| --- | --- | --- |
| CCOC(=O)N/N=C/c1ccc(OCCSc2ccc(Cl)cc2)c(OCC)c1 | 14.1 µM [rising, single point] | – |
| Cn1c(CC(=O)NC(C)(C)CO)c(Sc2ccccc2)c2ccccc21 | 12.6 µM [rising, single point] | – |
| COc1ccc2oc(=O)c(-c3csc(Nc4cccc(O)c4)n3)cc2c1 | 25.1 µM [rising, partial curve] | 35.5 µM [rising, single point] |
| CCc1cccc(NC(=O)CCCSc2nc3ccccc3[nH]2)c1 | 15.8 µM [rising, partial curve] | 17.8 µM [rising, partial curve, poor fit] |
| COC(=O)Nc1nc(-c2ccccc2)c(C(=O)c2ccc(Cl)cc2)s1 | 3.55 µM [rising, single point] | 0.2 µM [falling, full curve, poor fit] |
| CC(=O)NCc1cc(-c2ccc(Cl)cc2)no1 | – | 0.0708 µM [rising, full curve, poor fit] |
| COc1ccc(-c2ccc(CCC(=O)O)o2)cc1 | – | 10 µM [falling, partial curve] |
| CCCCCCCOc1ccc(OC(=O)c2cccnc2)cc1 | 3.16 µM [rising, partial curve] | – |
| CCc1cccc(C)c1NC(=O)CSc1nc2ccc(N3C(=O)c4ccccc4C3=O)cc2s1 | 15.8 µM [falling, partial curve] | – |
| COc1cc(/C=C2\COC/C(=C\c3ccc(O)c(OC)c3)C2=O)ccc1O | 2.82 µM [falling, partial curve] | 2.51 µM [falling, partial curve, poor fit] |
